Test results taken from PubChem BioAssay AID2685 (National Center for Advancing Translational Sciences (NCATS), 2010).
The list shows a part of the results. Shown are side measurements of this screen, not its main read-out; they come without a call. The list favours compounds with an active or inconclusive main result. Words in brackets tell the shape of the fitted curve; partial curves, single points and poor fits give uncertain potencies. Where a SMILES comes first, the peptide text is derived from it. [ ]: non-standard residue; d: D form. The star is where a group is joined. ξ: configuration not given here. ξPhe(4-Me) = Cc1ccc(CC(N)C(=O)O)cc1; Bz = O=C(c1ccccc1)*

Assay: qHTS Assay for Lipid Storage Modulators in Drosophila S3 Cells;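 on cell number change: cells counted by Cell Tracker Red CMTPX staining in the red channel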
Details: BODIPY lipid droplet fluorescence, 18-24 h; for cell number change: measured here: cell count max response, cells fed with added oleic acid
Procedure, shortened: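 Drosophila S3 cells loaded with oleic acid (400 uM, as added) and compounds at several concentrations; lipid droplets imaged by 488-nm laser-scanning cytometry, 500–530 nm intensity and object ratio to cell channel. Percent activity normalized to 20 uM Triacsin C.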

[1] = measured here: cell number channel AC50, cells fed with added oleic acid
[2] = measured here: lipid fluorescence (Fed channel) AC50, cells fed with added oleic acid

SMILES	cell number change [%]	AC50 [1]	AC50 [2]
CCNC(=O)C1CCCN1S(=O)(=O)c1ccc(OC)cc1 (stereo not drawn)	-59.2	29.1 µM [falling, single point]	29.1 µM [falling, single point]
O=C(COC(=O)CN1C(=O)c2ccccc2C1=O)NC1CCCC1	18.1	–	–
CCCc1cc(C(N)=S)ccn1	4.52	–	–
NC(=O)CSc1nc(O)cc(=O)n1-c1ccccc1	-175	25.9 µM [falling, single point]	29.1 µM [falling, single point]
COc1ccc(OC)c(N(CC(N)=O)S(=O)(=O)c2ccc(OC)c(OC)c2)c1	-35.2	0.651 µM [falling, full curve]	1.84 µM [falling, full curve]
CC1CCCN(S(=O)(=O)c2ccc3c(c2)C(C)(C)C(=O)N3C)C1 (stereo not drawn)	9.22	–	2.59 µM [rising, partial curve]
C=C(C)n1c(=O)n(Cc2ccccc2C)c2ccccc21	-20.6	1.16 µM [falling, full curve, poor fit]	–
COc1cccc(CNC(=O)c2ccc(C3SCCS3)cc2)c1	-16.5	–	29.1 µM [falling, single point]
Cc1cccc(-c2nnc(-c3ccc(N)cc3)o2)c1	-9.44	–	6.51 µM [falling, partial curve]
Cc1ccc(C)c(-n2c(-c3ccc4c(c3)OCO4)n[nH]c2=S)c1	-18.2	–	0.731 µM [falling, single point]
CC(C)c1ccc(NC(=O)c2cccnc2)cc1	-14.6	–	–
Cc1ccccc1N(C(=O)c1snc(C(N)=O)c1N)C(C(=O)NCC1CCCO1)c1ccc(N(C)C)cc1 (stereo not drawn)	-23.1	–	–
c1ccc(-c2nc(NCc3ccco3)c3ccccc3n2)nc1	-26.4	–	–
CCc1ccc(N2C(=O)CC(N3CCC(C(=O)OC)CC3)C2=O)cc1 (stereo not drawn)	18.5	–	23.1 µM [falling, single point]
Cc1ccc(F)cc1NC(=O)C1CC(=O)N(CCc2ccccc2)C1 (stereo not drawn)	69.4	4.61 µM [rising, full curve, poor fit]	–
N=C1C(c2nc3ccccc3[nH]2)=C(O)CN1c1ccccc1	23.1	1.84 µM [rising, partial curve, poor fit]	–
CCOc1cc(/C=N\NC(=O)c2ccc(NC(=O)C(C)(C)C)cc2)ccc1OC(=O)c1ccc(C)cc1	15.9	–	–
COc1ccc(-c2nc(CN3CCN(c4ccccc4OC)CC3)c(C)o2)cc1	-14.9	–	0.651 µM [falling, single point]
CCOC(=O)C1(C)NC(c2ccc(O)cc2)C2C(=O)N(c3ccccc3)C(=O)C21 (stereo not drawn)	–	–	29.1 µM [falling, single point]
Nn1c(SCc2cccc(Oc3ccccc3)c2)nnc1C(F)(F)F	28.7	–	18.4 µM [rising, single point]
CSc1cccc(NS(=O)(=O)c2cc(Br)cnc2N)c1	20.1	–	–

SMILES	cell number change [%]	AC50 [1]	AC50 [2]
Cc1ccc(CC(NC(=O)c2ccccc2)C(=O)NCC(=O)O)cc1 (stereo not drawn) (Bz-[ξPhe(4-Me)]-Gly-OH)	-18.4	–	25.9 µM [falling, partial curve]
O=C(CN1CCN(c2ccc(O)cc2)CC1)Nc1ccc(-c2ccccc2)cc1	–	2.59 µM [rising, partial curve]	–
Cc1ccc(-n2nnnc2SC(C(=O)c2c[nH]c3ccccc23)c2ccccc2)cc1 (stereo not drawn)	-15.4	–	13 µM [falling, single point]
Cn1cc(S(=O)(=O)NCc2cccs2)c(=O)n(C)c1=O	-15	–	0.58 µM [falling, full curve, poor fit]
Nc1nc(Cn2nnc(-c3ccccc3F)n2)nc(N2CCOCC2)n1	16.8	–	2.06 µM [rising, full curve, poor fit]
COc1ccc(C2NCCc3cc(OC)c(OC)cc32)cc1OC (stereo not drawn)	9.7	–	0.58 µM [falling, single point]
CCCCN(CC)CCCNC(=O)c1cn(CC(C)C)c(=O)c2c1c1ccccc1n2C	1.39	–	–
COc1ccc(C(c2c(C)n(C)n(-c3ccccc3)c2=O)c2c(C)n(C)n(-c3ccccc3)c2=O)cc1OC	34.3	–	29.1 µM [rising, single point]
COc1ccc(N2CCCn3c2nc2c3c(=O)n(CCCc3ccccc3)c(=O)n2C)cc1	-17.9	–	0.206 µM [rising, full curve]
CC(=O)N1c2ccc(S(=O)(=O)N3CCC(C(=O)N4CCN(c5cccc(C(F)(F)F)c5)CC4)CC3)cc2CC1C (stereo not drawn)	-36.7	29.1 µM [falling, single point]	–
O=C(O)c1c2c(nc3ccccc13)CCCCC2	-26	–	16.4 µM [falling, single point]
Cc1ccc(N(Cc2cc(=O)[nH]c3ccccc23)C(=O)C(C)C)c(C)c1	-17.9	–	–
N#Cc1ccc(Cl)cc1NC(=O)COC(=O)c1ccc(S(=O)(=O)N2CCCC2)cc1	6.86	–	0.411 µM [falling, partial curve, poor fit]
C=CCN1C(=O)/C(=C\C(C)=C\c2ccccc2)SC1=S	-5.11	–	18.4 µM [rising, partial curve]
COc1cccc(NC(=O)Nc2nnc(CC(=O)Nc3ccccc3)s2)c1	14.3	–	1.84 µM [rising, full curve]
O=C(CNC(=O)c1ccccc1)OC1CCCCC1	-2.04	3.66 µM [rising, single point]	–
Cc1ccc(S(=O)(=O)N2CCN(C(=O)Cn3nc(C(=O)O)c4ccccc4c3=O)CC2)cc1	35.1	–	0.92 µM [falling, full curve, poor fit]
CCC(Sc1nc2ccc(C)cc2[nH]1)C(=O)O (stereo not drawn)	–	–	6.51 µM [falling, single point]
COc1ccc(NC(=O)CSc2nc3n[nH]c(C)c3c(=N)n2-c2ccc(Cl)c(C)c2)cc1OC	117	20.6 µM [rising, partial curve]	–
COc1ccc2ccccc2c1CN1CCCC(CO)C1 (stereo not drawn)	-2.48	–	0.0651 µM [falling, full curve, poor fit]

An excerpt from above in order of molecular weight, falling.
SMILES	cell number change [%]	AC50 [1]	AC50 [2]
COc1ccc(NC(=O)CSc2nc3n[nH]c(C)c3c(=N)n2-c2ccc(Cl)c(C)c2)cc1OC	117	20.6 µM [rising, partial curve]	–
Cc1ccc(N(Cc2cc(=O)[nH]c3ccccc23)C(=O)C(C)C)c(C)c1	-17.9	–	–
O=C(CNC(=O)c1ccccc1)OC1CCCCC1	-2.04	3.66 µM [rising, single point]	–
